# Results from PubChem BioAssay AID540275 (National Center for Advancing Translational Sciences (NCATS), 2011).
# Protein sequences, listed by entry. Tags and fused reporters are not part of them.
# UniProt Q8NER1, whole entry, looked up: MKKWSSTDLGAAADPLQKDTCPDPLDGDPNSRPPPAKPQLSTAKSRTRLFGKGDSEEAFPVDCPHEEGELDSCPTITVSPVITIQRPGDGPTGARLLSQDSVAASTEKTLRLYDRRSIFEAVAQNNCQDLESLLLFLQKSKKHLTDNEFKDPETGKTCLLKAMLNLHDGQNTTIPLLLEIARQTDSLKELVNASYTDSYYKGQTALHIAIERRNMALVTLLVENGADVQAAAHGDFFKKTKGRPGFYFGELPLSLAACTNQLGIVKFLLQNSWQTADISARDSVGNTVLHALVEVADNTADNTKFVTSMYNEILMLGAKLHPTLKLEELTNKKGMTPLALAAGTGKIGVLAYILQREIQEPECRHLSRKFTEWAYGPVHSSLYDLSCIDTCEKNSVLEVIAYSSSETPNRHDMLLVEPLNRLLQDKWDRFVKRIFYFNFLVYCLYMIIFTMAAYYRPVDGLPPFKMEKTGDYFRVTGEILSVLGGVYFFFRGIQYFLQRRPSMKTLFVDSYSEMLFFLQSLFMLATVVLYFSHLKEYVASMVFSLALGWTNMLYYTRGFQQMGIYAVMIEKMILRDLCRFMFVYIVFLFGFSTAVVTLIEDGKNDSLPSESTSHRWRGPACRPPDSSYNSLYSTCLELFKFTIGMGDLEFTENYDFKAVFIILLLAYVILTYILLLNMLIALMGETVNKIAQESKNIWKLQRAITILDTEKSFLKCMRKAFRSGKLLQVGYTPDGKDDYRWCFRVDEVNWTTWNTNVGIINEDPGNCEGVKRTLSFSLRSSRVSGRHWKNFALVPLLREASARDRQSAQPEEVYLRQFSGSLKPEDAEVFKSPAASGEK
# Hit rate of the full screen: of about 320,000 compounds, about 620 (0.19%) were called active. This list was built around the results that the source calls inconclusive (neither active nor inactive); the mix of calls is not that of the screen. Rule as the data show it: active = activation above about 80%; inconclusive = between about 30% and that limit; inactive = weaker than that.
# Target: Transient receptor potential cation channel subfamily V member 1 (Homo sapiens) (UniProt Q8NER1)
# Experiment: HTS Assay for Compounds that Act as Agonists of the Vanilloid Receptor 1; also: 0% is about no effect
# Conditions: TRPV1-expressing cells, Fluo-8 calcium influx, agonist mode; at 8.33 µM, stronger effect = higher value
# Method in brief: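 TRPV1-expressing cells were cultured overnight at 35.5C and loaded with Fluo-8 calcium dye for 40 to 90 min at room temperature. After a 10 s baseline, compound was added and calcium influx was read kinetically for 3 min (ex 480/em 520 nm).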
row,Structure (SMILES),activation
1,COC(=O)C1=C(C)N(c2ccc(C)cc2)/C(=C/c2cccs2)C1=O,inconclusive: 66.4%
2,O=C(NCCSc1ccccn1)c1ccc(Cl)cc1,inconclusive: 45.6%
3,COC(=O)c1ccccc1NC(=O)N[C@@H](C)C(=O)OC,inactive: -3.94%
4,O=C(Cn1c(=O)oc2cc(S(=O)(=O)N3CCCC3)ccc21)Nc1ccc(C(F)(F)F)cc1,inconclusive: 50.6%
5,CC(C)(C)c1ccc(NC(=O)c2cc[n+]([O-])cc2)cc1,inconclusive: 74.9%
6,CC1=CC2=NC(=O)CC(C)(C(=O)N(CC(=O)NC(C)(C)C)C3CCCC3)N2C=C1 (stereo unspecified),inactive: -3.48%
7,CC1CC1C(=O)Nc1nc(-c2ccccc2)cs1 (stereo unspecified),inconclusive: 48%
8,Cc1nc2ccc(S(=O)(=O)c3ccc4nc(C)[nH]c4c3)cc2[nH]1,inactive: 2.73%
9,COc1ccc(C(O)(C2CCCCC2)C(CN2CCOCC2)c2ccccc2)cc1 (stereo unspecified),inconclusive: 34%
10,O=C(Nc1ccccc1)N1CCN(Cc2ccccc2)CC1,inconclusive: 36.8%
11,CC1CCCN(C(=O)c2ccc3c(=O)n(C4CCCC4)c(=S)[nH]c3c2)C1 (stereo unspecified),inactive: -4.58%
12,COc1cc(CNc2ccc3[nH]c(=O)[nH]c3c2)ccc1OCc1ccccc1F,inconclusive: 55.8%
13,Cc1ccc(SCCC(=O)NC(C(C)C)C(C)C)cc1,inconclusive: 31.4%
14,O=C(CNc1cccc(C(F)(F)F)c1)N/N=C/c1cccc(Br)c1,inactive: 10.7%
15,Cc1onc(-c2ccccc2)c1C(=O)N(Cc1ccco1)Cc1cccs1,inconclusive: 44.6%
16,CCOc1ccc2oc(C(=O)NNC(=O)c3csc(N4CCOCC4)n3)c(C)c2c1,inactive: 0.184%
17,O=C(Cc1ccccc1)NCCc1ccc(Cl)cc1Cl,inconclusive: 56%
18,CCCC(C)NC(=O)c1ccc(-c2ccccc2)cc1 (stereo unspecified),inconclusive: 30.7%
19,CC12C(=O)N(c3ccc(C(=O)N4CCOCC4)cc3)C(=O)C1C1c3ccccc3C2c2ccccc21 (stereo unspecified),inconclusive: 40.7%
20,O=C(NNC1=NS(=O)(=O)c2ccccc21)c1ccccc1,inactive: 0.301%
21,O=C(NCC1COc2ccccc2O1)c1cc(S(=O)(=O)N2CCOCC2)c(Cl)cc1Cl (stereo unspecified),inconclusive: 36.6%
22,O=C(NCCSC1CCCCC1)c1ccccc1,inconclusive: 48.8%
23,O=c1c2cn[nH]c2[nH]c(=S)n1-c1ccccc1F,inactive: 1.53%

row,Structure (SMILES),activation
1,COc1ccc(OC)c(NC2=C(Cl)C(=O)N(Cc3ccccc3)C2=O)c1,inconclusive: 44.7%
2,CC(C)CCC(CCNCc1ccccn1)c1ccc2c(c1)OCO2 (stereo unspecified),inconclusive: 40%
3,CCCN1Cc2cccc(C(=O)NC(C)c3cccs3)c2C1=O (stereo unspecified),inconclusive: 31.3%
4,Cc1ccc(OS(=O)(=O)c2ccccc2)c(/C=N/N=C2\NC(=O)C(C)S2)c1 (stereo unspecified),inactive: 3.52%
5,Cc1ccc2nc(-c3ccc(N)cc3)sc2c1,inactive: 0.635%
6,COc1ccc(NC(=O)c2ccc(Cl)c(S(=O)(=O)N3CC(C)OC(C)C3)c2)cn1 (stereo unspecified),inconclusive: 64.4%
7,COc1ccccc1Nc1ccc(C(=O)NCc2cccs2)cn1,inconclusive: 51.5%
8,Cc1nc(Nc2ccc(S(=O)(=O)N3CCCCC3C)cc2)c2nnn(Cc3ccccc3)c2n1 (stereo unspecified),inactive: -1.4%
9,C[C@]12CCC(=O)C[C@@H]1CC[C@@H]1[C@@H]2CC[C@]2(C)C=CC[C@@H]12,inconclusive: 48%
10,CC(C)NC(=O)CSc1nnc(-c2ccc(S(=O)(=O)N3CCCC3)cc2)n1CC1CCCO1 (stereo unspecified),inactive: -0.274%
11,O=C(NCc1cccs1)c1cccc(Nc2nc3ccc(Br)cc3[nH]2)c1,inconclusive: 58.3%
12,O=C(CSCc1ccccc1)Nc1ccc(Cl)cn1,inconclusive: 58.7%
13,O=C(/C=C/c1ccccc1)NCCSc1ccc(Cl)cc1,inconclusive: 66.8%
14,Cc1cc(C)cc(NC(=O)N2CCc3ccccc3C2)c1,inconclusive: 66.1%
15,Cc1ccc(-n2cc(CN3CCNC(=O)CC3)c(-c3ccc(F)cc3)n2)cc1,inconclusive: 30.9%
16,O=C(Nc1ccccc1)c1nc2ccccc2s1,inconclusive: 59.1%
17,COc1cc(NC(=S)NC(=O)C(C)C)ccc1NC(=O)c1cc2ccccc2o1,inactive: 5.62%
18,C/C=C(/C)C(=O)O[C@@H]1c2c(ccc3ccc(=O)oc23)OC(C)(C)[C@@H]1OC(=O)/C(C)=C\C,inconclusive: 53.4%
19,CCOC(=O)CN(C(=O)c1snc(C(N)=O)c1N)C(C(=O)NCCC(C)C)c1ccc(F)cc1 (stereo unspecified),inconclusive: 36.7%
20,Cc1cccc(NC(=O)c2cccc(OC(=S)N3CCOCC3)c2)c1,inconclusive: 32.4%
21,C=CCC1NS(=O)(=O)OC2CCCC12 (stereo unspecified),inactive: 1.71%
22,Cc1cc(C)cc(NC(=O)COC(=O)CC2CCCC2)c1,inactive: 22.9%
23,CCN(CC)c1ccc2cc(-c3nc4ccccc4[nH]3)c(=O)oc2c1,active: 152%

row,Structure (SMILES),activation
1,COC(=O)c1ccccc1NC(=O)CSCC(=O)Nc1ccc(F)cc1,inactive: 28.8%
2,CC(C)(C)c1ccc(C(=O)O/N=C(\N)c2ccccn2)cc1,inconclusive: 56.9%
3,COc1cc(CN2CCN(C(O)(c3ccccc3)c3ccccc3)CC2)cc(OC)c1OC,inactive: -1.24%
4,Cc1ccccc1CC(=O)Nc1ccc(S(=O)(=O)N2CCOCC2)cc1,inconclusive: 35.5%
5,O=C1c2ccc(Cl)cc2S(=O)(=O)c2cccc(C(=O)N3CCC(Cc4ccccc4)CC3)c21,inactive: -0.586%
6,COc1ccc(N2CCN(C(C)C(=O)N3CCCC3)CC2)cc1 (stereo unspecified),inactive: 0.392%
7,O=S1(=O)C=C(SCc2ccc(Cl)c(Cl)c2)Nc2ccccc21,inconclusive: 34.1%
8,CCN(CC)c1ccc(NC(=O)c2ccco2)cc1,inconclusive: 68.8%
9,CCCOc1ccc(N2CC(C(=O)Nc3ccccc3F)CC2=O)cc1 (stereo unspecified),inconclusive: 54.4%
10,COc1ccc2nc(NC(=O)CSC3=NCCS3)sc2c1,inactive: -0.273%
11,Cc1ccc(OCC(=O)Nc2ccc(S(=O)(=O)N3CCOCC3)cc2)c(Br)c1,inconclusive: 67.9%
12,CCN1CCC(=NNC(=O)c2ccc(C)c([N+](=O)[O-])c2)CC1,inconclusive: 39%
13,COc1ccccc1N/C(=N/S(=O)(=O)c1ccc(C)cc1)c1ccccc1,inconclusive: 34.4%
14,Cc1ccc(NC(=O)Nc2cccs2)c(Cl)c1,inconclusive: 30.8%
15,Cc1csc(=Nc2cccnc2)n1CC1CCCCC1,inconclusive: 44.9%
16,CC(C)c1ccc(CNC(=O)CCc2ccccc2)cc1,inconclusive: 44%
17,O=[N+]([O-])c1cccnc1S(=O)(=O)c1ccccc1,inactive: -5.14%
18,CCc1ccc(-c2cc(C)no2)cc1S(=O)(=O)NCc1ccccc1OC,inconclusive: 35.1%
19,CCCC#Cc1ccc2c(c1)COc1c3ccccc3nn1-2,inconclusive: 63.9%
20,Cc1cc(NC(=O)C2CCN(C(=O)c3ccco3)CC2)ccc1Br,inactive: 29.2%
21,CC(C)(C)c1ccc(C(=O)NCC2CCCN2S(=O)(=O)c2ccccc2)cc1 (stereo unspecified),inconclusive: 34.4%
22,O=C(CC(=O)Nc1nc(C23CC4CC(CC(C4)C2)C3)cs1)NCCO,inconclusive: 43.5%
23,Cc1ccc(OCCCCNC(C)c2ccccc2)c(C)c1 (stereo unspecified),inconclusive: 30.8%

# Structural class, the compounds so far with a thiophene ring, fused or not
row,Structure (SMILES),activation
1,COC(=O)C1=C(C)N(c2ccc(C)cc2)/C(=C/c2cccs2)C1=O,inconclusive: 66.4%
15,Cc1onc(-c2ccccc2)c1C(=O)N(Cc1ccco1)Cc1cccs1,inconclusive: 44.6%
3,CCCN1Cc2cccc(C(=O)NC(C)c3cccs3)c2C1=O (stereo unspecified),inconclusive: 31.3%
7,COc1ccccc1Nc1ccc(C(=O)NCc2cccs2)cn1,inconclusive: 51.5%
11,O=C(NCc1cccs1)c1cccc(Nc2nc3ccc(Br)cc3[nH]2)c1,inconclusive: 58.3%
14,Cc1ccc(NC(=O)Nc2cccs2)c(Cl)c1,inconclusive: 30.8%

# (list continues)

row,Structure (SMILES),activation
1,Cc1ccc2c(c1)-c1[nH]c(=S)ncc1CS2,inactive: 0.588%
2,CCOC(=O)C1(CC2CCCCO2)CCN(C(=O)Nc2ccc(C(=O)OC)cc2)CC1 (stereo unspecified),inconclusive: 44.9%
3,CC(C)c1ccc2c(c1)C(c1cccs1)=NNC(c1ccncc1)=N2,inconclusive: 68.3%
4,COC(=O)c1cc(NC(=O)Cc2ccc(OC)cc2)cc(C(=O)OC)c1,inconclusive: 34.4%
5,O=C(N/C=C/c1ccccc1)c1ccccc1,active: 83.1%
6,CCCc1nc2ccccc2n1Cc1ccccc1OC,inconclusive: 36%
7,COc1cc(/C=N/Nc2nc(=O)[nH]nc2C)cc(OC)c1O,inactive: -1.2%
8,Cc1cc(C)n(-c2ccc(C(=O)Nc3cccnc3)cc2)n1,inconclusive: 71.3%
9,COc1ccc(CNc2oc(Cc3cccc4ccccc34)nc2C#N)cc1,inconclusive: 76.2%
10,CC(OC(=O)c1ccccc1N1C(=O)C2C3CCC(C3)C2C1=O)C(=O)c1ccccc1 (stereo unspecified),inconclusive: 50%
11,O=C(CSc1nnnn1-c1ccc(Cl)cc1)N1CCc2ccccc2C1,inconclusive: 31.2%
12,Clc1ccc(-c2nnc(-c3ccccc3Cl)o2)cc1,inconclusive: 49.1%
13,C[C@@H]1C=C(C(=O)N2CCN(Cc3ccccc3)CC2)O[C@H](OCc2ccc(CO)cc2)C1,inconclusive: 46%
14,CCc1cccc(NC(=O)c2ccc3c(=O)n4c(nc3c2)CCCCC4)c1,inconclusive: 40.3%
15,COc1ccc(/C=N/NC(=O)c2cccnc2)cc1CSc1nc2ccccc2s1,inconclusive: 42.8%
16,CC(C)(C)C(=O)Nc1ccc(-c2csnn2)cc1,inactive: 27.7%
17,O=C(/C=C/c1ccco1)Nc1nc(-c2ccc(F)c(F)c2)cs1,inconclusive: 38.7%
18,O=C(NCC1CCCCC1)c1cccc([N+](=O)[O-])c1,inconclusive: 42.8%
19,O=C(NCC1COc2ccccc2O1)c1cc2ccccc2o1 (stereo unspecified),inconclusive: 40.3%
20,C=CCn1c(N/N=C/c2ccc(O)cc2)nc2ccccc2c1=O,inconclusive: 37.6%
21,Nc1c(-c2n[nH]c(=S)n2-c2ccc(Cl)cc2Cl)cnn1-c1ccccc1,inactive: 0.0398%
22,COc1cc(C(=O)Nc2cccc(-n3cnnn3)c2)cc(Cl)c1OC,inconclusive: 79%
